No constants are given. Whether binding was seen depends on the method and setting. Binding seen in cells or lysates may run through a third protein. A result given as binding can be weak or reduced; the word gives no strength. Sequences can lack the tags named with a protein.

Protein sequences, listed by entry. Tags and fused reporters are not part of them. Lines headed by an entry give the natural chain unless they say otherwise; changes in a name come on top.
UniProt Q6H8A9: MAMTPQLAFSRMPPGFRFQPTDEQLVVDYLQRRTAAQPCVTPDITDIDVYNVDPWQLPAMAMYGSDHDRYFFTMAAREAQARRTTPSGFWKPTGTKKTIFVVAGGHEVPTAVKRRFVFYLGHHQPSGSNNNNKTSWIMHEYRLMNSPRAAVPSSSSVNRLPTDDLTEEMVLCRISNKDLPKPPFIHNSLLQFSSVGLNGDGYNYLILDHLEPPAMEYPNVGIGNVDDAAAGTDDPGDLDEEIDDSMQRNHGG

What all share (test): split reporter; BiFC: CDS of bait and prey in pCAMBIA1300-35S-N-YFPC and pCAMBIA1300-35S-N-YFPN; Agrobacterium GV3101 infiltrated into leaf epidermal cells of 3 week old Nicotiana benthamiana; fluorescence seen after 36 h by confocal microscopy
In experiment [1] the target is T1, SAPK8 (BiFC fusion) (rice (Oryza sativa L.)) (UniProt Q7Y0B9).
T1 sequence: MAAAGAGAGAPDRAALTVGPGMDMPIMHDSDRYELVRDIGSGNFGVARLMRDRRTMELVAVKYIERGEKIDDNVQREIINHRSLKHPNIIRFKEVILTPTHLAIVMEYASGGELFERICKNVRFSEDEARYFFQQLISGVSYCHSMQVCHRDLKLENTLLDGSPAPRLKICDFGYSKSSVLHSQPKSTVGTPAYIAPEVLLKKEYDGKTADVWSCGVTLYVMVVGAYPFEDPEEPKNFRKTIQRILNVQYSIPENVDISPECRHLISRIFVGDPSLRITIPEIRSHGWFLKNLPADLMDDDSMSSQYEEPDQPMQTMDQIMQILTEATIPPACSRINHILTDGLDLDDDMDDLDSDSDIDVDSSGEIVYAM

For experiment [2], the target named is T2, SAPK6 (BiFC fusion) (rice (Oryza sativa L.)) (UniProt Q6ZI44).
T2 sequence: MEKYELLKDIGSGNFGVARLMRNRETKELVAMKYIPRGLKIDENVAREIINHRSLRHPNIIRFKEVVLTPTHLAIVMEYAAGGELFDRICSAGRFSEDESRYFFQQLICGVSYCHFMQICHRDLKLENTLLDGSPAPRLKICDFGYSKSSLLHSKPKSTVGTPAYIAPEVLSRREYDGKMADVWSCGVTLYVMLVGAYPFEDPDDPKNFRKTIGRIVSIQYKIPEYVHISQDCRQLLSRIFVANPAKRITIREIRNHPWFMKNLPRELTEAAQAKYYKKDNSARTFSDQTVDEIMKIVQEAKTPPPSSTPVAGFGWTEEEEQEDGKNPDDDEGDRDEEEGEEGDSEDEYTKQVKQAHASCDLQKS

Experiment [3] concerns the target P0524G08.124 (BiFC fusion) (rice (Oryza sativa L.)).

As for “OsNAC23 (BiFC fusion) (from UniProt Q6H8A9)”, the binding result in experiment [1] and in experiment [2] was “binds” in each case.

B1: bZIP58 (BiFC fusion) (protein, UniProt Q6ZLB0 1-436)
chain: MEHVFAVDEIPDPLWAPPPPVQPAAAAGVDDVGAVSGGGLLERCPSGWNLERFLEELDGVPAPAASPDGAAIYPSPMPAAAAEAAARWSRGYGDREAVGVMPMPAAALPAAPASAAMDPVEYNAMLKRKLDEDLATVAMWRASGAIHSESPLGNKTSLSIVGSILSSQKCIEGNGILVQTKLSPGPNGGSGPYVNQNTDAHAKQATSGSSREPSPSEDDDMEGDAEAMGNMILDEEDKVKKRKESNRESARRSRSRKAARLKDLEEQVSLLRVENSSLLRRLADANQKYSAAAIDNRVLMADIEALRAKVRMAEESVKMVTGARQLHQAIPDMQSPLNVNSDASVPIQNNNPMNYFSNANNAGVNSFMHQVSPAFQIVDSVEKIDPTDPVQLQQQQMASLQHLQNRACGGGASSNEYTAWGSSLMDANELVNMELQ
With B1, the binding result in experiment [3] was “binds”.

The values are drawn from publication PMC11923860.
